In PMC7281538:
These are yes or no findings as the source states them, for the method shown. Some binding calls cover weakened binding; strength is not graded here.

The chains behind the UniProt entries cited, without tags or fusion partners.
UniProt P25098: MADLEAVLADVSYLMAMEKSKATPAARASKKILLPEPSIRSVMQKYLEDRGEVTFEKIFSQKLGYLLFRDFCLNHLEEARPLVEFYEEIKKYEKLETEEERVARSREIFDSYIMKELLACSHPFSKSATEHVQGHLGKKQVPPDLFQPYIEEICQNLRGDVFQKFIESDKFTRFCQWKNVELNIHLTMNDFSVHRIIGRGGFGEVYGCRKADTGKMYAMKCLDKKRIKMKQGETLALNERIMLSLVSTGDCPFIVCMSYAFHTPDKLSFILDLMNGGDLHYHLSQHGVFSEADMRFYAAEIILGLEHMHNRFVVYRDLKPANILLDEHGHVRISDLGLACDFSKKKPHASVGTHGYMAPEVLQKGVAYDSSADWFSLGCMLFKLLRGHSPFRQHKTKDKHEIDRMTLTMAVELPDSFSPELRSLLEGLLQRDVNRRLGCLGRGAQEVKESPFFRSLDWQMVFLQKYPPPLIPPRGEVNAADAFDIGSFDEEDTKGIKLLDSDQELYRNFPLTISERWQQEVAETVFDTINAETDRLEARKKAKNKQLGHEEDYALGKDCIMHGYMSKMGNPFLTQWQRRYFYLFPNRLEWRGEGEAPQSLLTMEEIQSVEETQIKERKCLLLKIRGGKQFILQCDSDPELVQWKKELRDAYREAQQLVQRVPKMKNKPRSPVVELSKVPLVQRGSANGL
UniProt Q15717: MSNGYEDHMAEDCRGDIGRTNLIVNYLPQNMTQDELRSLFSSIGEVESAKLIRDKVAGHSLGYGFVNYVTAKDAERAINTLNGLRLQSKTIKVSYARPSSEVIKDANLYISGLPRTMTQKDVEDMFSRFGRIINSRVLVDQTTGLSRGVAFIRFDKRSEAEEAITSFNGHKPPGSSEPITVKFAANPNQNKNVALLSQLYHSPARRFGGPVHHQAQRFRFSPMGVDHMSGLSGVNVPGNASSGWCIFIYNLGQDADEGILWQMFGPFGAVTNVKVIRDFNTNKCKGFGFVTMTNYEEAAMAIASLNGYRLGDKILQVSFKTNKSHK

Target: recombinant GRK2 full-length protein (UniProt P25098)
Experiment: far-Western, overlay or dot blot; GST-tagged GRK2 fragments (2 µg) and recombinant full-length GRK2 spotted on nitrocellulose; incubated 4 h at 37 °C with GST-HuR (2 µg/mL) in 20 mM Tris-HCl pH 7.5, 100 mM NaCl, 1 mM EDTA, 0.3% NP-40, 10% glycerol, 0.5 mM NaF, 1 mM Na3VO4; both purified

binding: binds
Substance: GST-HuR (ELAV-like protein 1, Human antigen R) (from UniProt Q15717 1-326)
